Reference: US20230017777, “MONOCYTE AND MACROPHAGE BINDING APTAMERS AND THEIR APPLICATION” (University of Washington, published 2023)
Where cells or extracts were used, other partners may take part. A negative result means that nothing was seen under these conditions. Protein sequences can lack the tags named with them.

Target: T1, CD14 (UniProt P08571)
T1 sequence (looked up, limits assumed): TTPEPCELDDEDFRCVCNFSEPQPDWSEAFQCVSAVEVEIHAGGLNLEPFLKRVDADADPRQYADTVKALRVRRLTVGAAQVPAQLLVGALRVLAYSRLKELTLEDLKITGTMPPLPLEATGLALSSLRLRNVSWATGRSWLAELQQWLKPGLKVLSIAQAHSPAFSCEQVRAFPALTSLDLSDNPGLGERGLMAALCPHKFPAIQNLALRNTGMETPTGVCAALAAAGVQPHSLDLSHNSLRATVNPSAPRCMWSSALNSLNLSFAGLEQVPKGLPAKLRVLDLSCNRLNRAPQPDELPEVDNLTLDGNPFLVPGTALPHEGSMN
Assay: flow cytometry
Conditions: CD14-transfected Jurkat cells, protein on the cell surface, protein details: expressed on transfected Jurkat cells, label: Cy5 (flow cytometry), single-stranded DNA

ATCCAGAGTGACGCAGCAGAAGAGTAGATGAAACGTTTTTTCGCCCGATAAAAGGGACGTGCGTCAGACATGGACACGGTGGCTTAGT [A2]
binding result (no significant binding over SCRM): no binding

ATCCAGAGTGACGCAGCAATGATAGTGACGTACGGACTAGGGATCACCCATATCATGTAGAGGAAGTACGTGGACACGGTGGCTTAGT [SCRM (scrambled / nonspecific control aptamer)]
binding result (scrambled control, variant of A2): no binding
